Values quoted from earlier work in patent US8440442B2, “Method of assaying 5-FU” (Myriad Genetics, Inc, priority 2009, dated 2013).

Details: patients, 5-FU infusion; cited from earlier work

SMILES: O=c1[nH]cc(F)c(=O)[nH]1 [5-FU, 5-fluorouracil]
- average t1/2: ~13 min
